Source: patent publication US20040033276A1, “Coating composition for cereals having a preventive or treating effect on diabetes and cereals coated thereby” (priority 2002, published 2004)
At least one structure is not confirmed: it was looked up by name or label, or the drawing left a doubt.

System: α-glucosidase
Assay: Inhibition of α-glucosidase by extracts of herb medicine
Format: biochemical
Details: 0.1 ml extract; relative to negative control
Description: Inhibitory activities of various herb extracts on the activity of α-glucosidase, which catalyzes the digestion of a polysaccharide to monosaccharides, were examined as follows. Extracts of various herb medicines listed in Table 4 below were prepared in accordance with the method of Reference Example 2. Added to 0.27 ml of 2 mM substrate (p-nitrophenyl-α-D-glucopyranoside, Sigma, U.S.A.) were 0.03 ml of α-glucosidase(Sigma, U.S.A.), 0.2 ml of 20 mM phosphate buffer (pH 7.0) and 0.1 ml of respective extracts obtained above. The resulting mixture was incubated in a 37° C. thermostat(Vision Science, Korea) for 30 minutes, and 0.5 ml of 1 M glycine-NaOH (pH 9.0) was added thereto to stop the reaction. […] Negative control was treated with distilled water instead of the herb extract, and positive control, with acarbose(Glucobay™, Bayer) and DNJ (Deoxynojirimycin, Dep. Seruculture & Entomology, NIAST), which are representative α-glucosidase inhibitors. Activities of the respective extracts for inhibiting α-glucosidase were calculated by the following equation and the result is shown in Table 4. Inhibition (%)=(1−Absorbance of a sample/Absorbance of the negative control)×100

## C[C@H]1O[C@H](O[C@H]2[C@H](O)[C@@H](O)[C@@H](O[C@H]3[C@H](O)[C@@H](O)C(O)O[C@@H]3CO)O[C@@H]2CO)[C@H](O)[C@@H](O)[C@@H]1N[C@H]1C=C(CO)[C@@H](O)[C@H](O)[C@H]1O (stereo partly shown) [Acabose, acarbose]
  Inhibition (%): 62.2%
